Test results as given in the supplement of paper PMC4962491.
Where a name gives a salt, the structure may show the parent alone. ± gives the standard deviation of the averaged measurements. This is a selection; strong and weak results do not stand in their true shares. Single values are uncertain here, since repeats match poorly.

Tested on: FaDu
Assay: mitochondrial oxygen consumption rate normalised to cell number, Z score over the library; higher = higher oxygen consumption (negative = OCR reduction)
Details: treatment time 24 h, assay medium: 5 mM galactose, 5 mM pyruvate, 4 mM glutamine
Description: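 Primary screen: FaDu cells were incubated 24 h with Pharmakon 1600 / TDI oncology set compounds at 2 or 10 uM. Mitochondrial-specific OCR (basal minus 2 uM antimycin A) was measured on a Seahorse XF96 in assay medium with 5 mM galactose, 5 mM pyruvate and 4 mM glutamine, then corrected for Hoechst cell number and expressed as a Z score […]. Compounds that cut cell number by >66% were excluded. Two repeats.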

Compound | mitochondrial oxygen consumption rate normalised (2 µM) | mitochondrial oxygen consumption rate normalised (10 µM)
CC(CCc1ccccc1)NCC(O)c1ccc(O)c(C(N)=O)c1 (stereo unspecified) | 0.395 ± 0.033 | 
O=C(O)c1cccnc1Nc1cccc(C(F)(F)F)c1 | -0.0941 ± 0.38 | 
Cc1oncc1C(=O)Nc1ccc(C(F)(F)F)cc1 | 0.488 ± 0.16 | 
CC1CC(OC(=O)C(O)c2ccccc2)CC(C)(C)C1 (stereo unspecified) | 0.715 ± 2 | 
C[N+](C)(C)CCCCCC[N+](C)(C)C | -0.292 ± 0.037 | 
CN(C)/N=N/c1[nH]cnc1C(N)=O | 0.561 ± 1.2 | 
CN(C)/N=N/c1[nH]cnc1C(N)=O [Dacarbazine] | 0.0555 ± 0.42 | 
Cc1onc(-c2c(Cl)cccc2Cl)c1C(=O)N[C@@H]1C(=O)N2[C@@H]1SC(C)(C)[C@@H]2C(=O)O | -0.161 ± 0.89 | 
CN1C(C)(C)CCCC1(C)C | 0.289 ± 0.16 | 
Cc1cc2c(cc1S(N)(=O)=O)S(=O)(=O)CCC2 | -0.565 ± 0.11 | 
CCCCCCc1ccc(O)cc1O.Nc1c2ccccc2nc2ccccc12 | -1.62 ± 0.36 | 
CCCCCCCCCc1ccc(OCCOCCOCCOCCOCCOCCOCCOCCOCCO)cc1 | -2.09 ± 0.89 | 
CC(C)c1ccc2oc3nc(N)c(C(=O)O)cc3c(=O)c2c1 | 0.335 ± 1.2 | 
NC(=O)c1cc[n+](CC2=C(C(=O)O)N3C(=O)[C@@H](NC(=O)[C@@H](c4ccccc4)S(=O)(=O)[O-])[C@H]3SC2)cc1 | 0.126 ± 0.29 | 
CC1(C)S[C@@H]2[C@H](NC(=O)[C@H](NC(=O)N3CCNC3=O)c3ccccc3)C(=O)N2[C@H]1C(=O)O | -0.238 ± 0.32 | 
COC(=O)Nc1nc2cc(C(=O)c3ccccc3)ccc2[nH]1 | 0.432 ± 0.63 | 
CC(C(=O)O)c1ccc2c(c1)Cc1cccnc1O2 (stereo unspecified) | -0.307 ± 0.18 | 
C[C@H]1COc2c(C3(N)CC3)c(F)cc3c(=O)c(C(=O)O)cn1c23 | -0.488 ± 0.1 | 
CSc1ccc2c(c1)C(N1CCN(C)CC1)Cc1ccccc1S2 (stereo unspecified) | -0.649 ± 0.12 | 
CC(=O)Nc1ccccc1 | 0.0262 ± 0.18 | 
COC(=O)C1=C(C)NC(C)=C(C(=O)OCCN2CCN(C(c3ccccc3)c3ccccc3)CC2)C1c1cccc([N+](=O)[O-])c1 (stereo unspecified) | 0.0396 ± 0.52 | 
C[N+]1(C)[C@@H]2CC[C@H]1C[C@@H](OC(=O)C(O)c1ccccc1)C2 (stereo partly specified) | -0.635 ± 0.7 | 
CC(C)(C(=O)O)c1ccc(C(O)CCCN2CCC(C(O)(c3ccccc3)c3ccccc3)CC2)cc1 (stereo unspecified) | 0.568 ± 0.45 | 
O=C[C@H](O)[C@@H](O)[C@H](O)CO | 0.563 ± 0.11 | -0.552 ± 0.11
Cc1cc(C(C)(C)C)c(O)c(C)c1CC1=NCCN1 | 0.305 ± 0.23 | 

Two records picked at random from those above:
Compound | mitochondrial oxygen consumption rate normalised (2 µM) | mitochondrial oxygen consumption rate normalised (10 µM)
CCCCCCc1ccc(O)cc1O.Nc1c2ccccc2nc2ccccc12 | -1.62 ± 0.36 | 
CC(=O)Nc1ccccc1 | 0.0262 ± 0.18 | 

More results follow:

Compound | mitochondrial oxygen consumption rate normalised (2 µM) | mitochondrial oxygen consumption rate normalised (10 µM)
NC(Cc1ccc(Cl)cc1)C(=O)O (stereo unspecified) | 0.589 ± 0.73 | 
CN(C)CCCN1c2ccccc2Sc2ccccc21 | 0.419 ± 0.62 | 
CCCc1cc(=O)[nH]c(=S)[nH]1 | 1.08 ± 0.24 | 
COc1ccc(CCN(C)CCCC(C#N)(c2ccc(OC)c(OC)c2)C(C)C)cc1OC (stereo unspecified) | 0.59 ± 0.23 | 
CN(N=O)C(=O)N[C@H]1C(O)O[C@H](CO)[C@@H](O)[C@@H]1O (mixture of isomers) | -1.06 ± 0.72 | 
CO/N=C(\C(=O)N[C@@H]1C(=O)N2C(C(=O)OCOC(=O)C(C)(C)C)=C(/C=C\c3scnc3C)CS[C@H]12)c1csc(N)n1 | 0.723 ± 0.94 | 
Oc1ncnc2[nH]ncc12 | 0.968 ± 0.95 | 
Oc1ncnc2[nH]ncc12 [Allopurinol] | 0.0104 ± 0.24 | 
C[C@]12CCC(=O)C=C1CC[C@@H]1[C@@H]2[C@@H](O)C[C@@]2(C)[C@H]1CC[C@]2(O)C(=O)CO | -0.0553 ± 1.1 | 
CCOC(=O)C1=C[C@@H](OC(CC)CC)[C@H](NC(C)=O)[C@@H](N)C1 | 0.252 ± 0.53 | 
CNCCCC1c2ccccc2C=Cc2ccccc21 | 1.44 ± 1.1 | 
Nc1nc(Cl)nc2c1ncn2[C@H]1C[C@H](O)[C@@H](CO)O1 [Cladribine] | -0.125 ± 0.28 | 
Cc1cccc(C(=O)O)c1O | -0.675 ± 0.6 | 
Cc1ccc2c(Br)cc(Br)c(OC(=O)c3ccccc3)c2n1 | -0.982 ± 0.62 | -2.31 ± 0.47
CN[C@@H]1[C@H](O[C@H]2[C@H](O[C@H]3[C@H](O)[C@@H](O)[C@H](N=C(N)N)[C@@H](O)[C@@H]3N=C(N)N)O[C@@H](C)[C@]2(O)C=O)O[C@@H](CO)[C@H](O)[C@H]1O | -0.674 ± 0.2 | 
CC1(C)S[C@@H]2[C@H](NC(=O)[C@H](N)c3ccc(O)cc3)C(=O)N2[C@H]1C(=O)O | -0.269 ± 0.47 | 
COc1cccc2c1C(=O)c1c(O)c3c(c(O)c1C2=O)C[C@@](O)(C(=O)CO)C[C@@H]3O[C@H]1C[C@H](N)[C@H](O)[C@H](C)O1 [Doxorubicin HCl] | 0.698 ± 0.75 | 
OCCOCCN1CCN(C2=Nc3ccccc3Sc3ccccc32)CC1 | 0.0842 ± 0.32 | 
N=C(N)c1ccc(OCCCCCOc2ccc(C(=N)N)cc2)cc1 | -1.04 ± 0.19 | -3.01 ± 0.078
O=C(OC[C@H]1O[C@@H](OC(=O)c2cc(O)c(O)c(OC(=O)c3cc(O)c(O)c(O)c3)c2)[C@H](OC(=O)c2cc(O)c(O)c(OC(=O)c3cc(O)c(O)c(O)c3)c2)[C@@H](OC(=O)c2cc(O)c(O)c(OC(=O)c3cc(O)c(O)c(O)c3)c2)[C@@H]1OC(=O)c1cc(O)c(O)c(OC(=O)c2cc(O)c(O)c(O)c2)c1)c1cc(O)c(O)c(OC(=O)c2cc(O)c(O)c(O)c2)c1 | -0.399 ± 0.43 | 
CCCCC(=O)O[C@H]1CC[C@H]2[C@@H]3CCc4cc(O)ccc4[C@H]3CC[C@]12C | 0.481 ± 0.4 | 
Cc1ccc(Nc2c(F)cccc2Cl)c(CC(=O)O)c1 | 1.65 ± 2 | 
CN1CCc2c(c3ccccc3n2Cc2ccccc2)C1 | -0.453 ± 0.29 | 
Fc1ccc(C(c2ccc(F)cc2)N2CCN(C/C=C/c3ccccc3)CC2)cc1 | 1.02 ± 0.067 | 
CCCCOc1ccc(OCCCN2CCOCC2)cc1 | 0.0446 ± 0.25 | -0.434 ± 0.23

Compound | mitochondrial oxygen consumption rate normalised (2 µM) | mitochondrial oxygen consumption rate normalised (10 µM)
CC1CCc2cc(F)cc3c(=O)c(C(=O)O)cn1c23 (stereo unspecified) | 0.976 ± 0.58 | 
CC(C)c1nc(CN(C)C(=O)N[C@H](C(=O)N[C@@H](Cc2ccccc2)C[C@H](O)[C@H](Cc2ccccc2)NC(=O)OCc2cncs2)C(C)C)cs1 | -0.113 ± 0.047 | 
CC(=O)Oc1cccc(C(=O)O)c1OC(C)=O | 0.0307 ± 0.068 | 
CC(C)[C@H]1CC[C@H](C(=O)N[C@H](Cc2ccccc2)C(=O)O)CC1 | -0.405 ± 0.13 | 
Nc1nc(N)nc(-c2cc(Cl)ccc2Cl)n1 | -0.693 ± 0.11 | 
S=P(N1CC1)(N1CC1)N1CC1 [Thiotepa] | 0.649 ± 0.12 | 
S=P(N1CC1)(N1CC1)N1CC1 | 0.642 ± 1.7 | 
NS(=O)(=O)c1cc2c(cc1C(F)(F)F)NC(Cc1ccccc1)NS2(=O)=O (stereo unspecified) | 0.422 ± 0.46 | 
CC(CN1c2ccccc2Sc2ccccc21)N(C)C (stereo unspecified) | -0.132 ± 0.82 | 
O=C(c1ccc(OCCN2CCCCC2)cc1)c1c(-c2ccc(O)cc2)sc2cc(O)ccc12 [Raloxifene HCl] | 0.682 ± 0.39 | -0.567 ± 1.1
O=C(c1ccc(OCCN2CCCCC2)cc1)c1c(-c2ccc(O)cc2)sc2cc(O)ccc12 | -0.222 ± 0.26 | -0.0851 ± 0.4
CCn1cc(C(=O)O)c(=O)c2cc(F)c(N3CCNCC3)cc21 | 0.462 ± 0.077 | 
CC1(C)S[C@@H]2[C@H](N3C(=O)[C@@H](c4ccccc4)NC3(C)C)C(=O)N2[C@H]1C(=O)O | -0.0969 ± 0.94 | 
CCOC(=O)C1=C(C)NC(C)=C(C(=O)OC)C1c1cccc([N+](=O)[O-])c1 (stereo unspecified) | 0.629 ± 1.6 | 
CNC(=O)c1c(I)c(NC(C)=O)c(I)c(C(=O)O)c1I | 1.05 ± 0.82 | -0.0805 ± 0.4
COC1=CC(=O)C[C@@H](C)[C@]12Oc1c(Cl)c(OC)cc(OC)c1C2=O | 0.58 ± 0.19 | 
CCC(=O)NCC[C@@H]1CCc2ccc3c(c21)CCO3 | 0.469 ± 0.012 | -0.125 ± 0.067
CN(C)CCC(c1ccc(Cl)cc1)c1ccccn1 (stereo unspecified) | 0.274 ± 0.57 | 
OCC(O)CN1CCN(c2ccccc2)CC1 (stereo unspecified) | 1.19 ± 1.1 | 
Cc1onc(-c2ccccc2)c1C(=O)N[C@@H]1C(=O)N2[C@@H]1SC(C)(C)[C@@H]2C(=O)O | 0.231 ± 0.17 | 
CCCC(CCC)C(=O)O | -0.322 ± 0.43 | 
CN(C)CCCC1(c2ccc(F)cc2)OCc2cc(C#N)ccc21 (stereo unspecified) | 0.53 ± 0.18 | 
Cn1c(=O)c2c(ncn2C)n(C)c1=O | -0.331 ± 0.31 | 
O=C([O-])C(O)[C@H](O)[C@@H](O)[C@H](O)[C@H](O)CO.O=C([O-])C(O)[C@H](O)[C@@H](O)[C@H](O)[C@H](O)CO.[Ca+2] (stereo partly specified) | 0.103 ± 0.48 | 
Cc1c(OCC(F)(F)F)ccnc1C[S+]([O-])c1nc2ccccc2[nH]1 (stereo unspecified) | -0.118 ± 0.7 | 

Compound | mitochondrial oxygen consumption rate normalised (2 µM) | mitochondrial oxygen consumption rate normalised (10 µM)
CC(C)(C)NCC(O)c1ccc(O)c(CO)c1 (stereo unspecified) | 0.429 ± 1 | 
Cn1c(=O)c2[nH]c(Br)nc2n(C)c1=O | -0.947 ± 0.073 | 0.142 ± 0.29
COc1ccc2cc1Oc1ccc(cc1)C[C@H]1c3c(cc4c(c3Oc3cc5c(cc3OC)CCN(C)[C@@H]5C2)OCO4)CCN1C | -1.42 ± 1.3 | 
CC(O)CC(C)(C)O (stereo unspecified) | 0.391 ± 0.11 | 
CCOC(=O)c1ccc(O)cc1 | 0.644 ± 2.1 | 
COC(=O)Nc1nc2cc(C(=O)c3ccc(F)cc3)ccc2[nH]1 | 0.298 ± 0.3 | 0.265 ± 0.4
OC[C@H]1O[C@H](O[C@H]2[C@H](O)[C@@H](O)C(O)O[C@@H]2CO)[C@H](O)[C@@H](O)[C@@H]1O (stereo partly specified) | 0.67 ± 0.86 | 
CN(C)CCC(c1ccccc1)c1ccccn1 (stereo unspecified) | -0.215 ± 0.51 | 
CC(C)CCC[C@@H](C)[C@H]1CC[C@H]2[C@@H]3CC=C4C[C@@H](O)CC[C@]4(C)[C@H]3CC[C@]12C | 0.3432 ± 0.0023 | -0.87 ± 0.089
COc1ccc2nc3cc(Cl)ccc3c(Nc3cc(CN4CCCC4)c(O)c(CN4CCCC4)c3)c2n1 | -0.0714 ± 0.73 | 
Nc1nc(=O)c2c([nH]1)NCC(CNc1ccc(C(=O)N[C@@H](CCC(=O)O)C(=O)O)cc1)N2C=O (stereo partly specified) | -0.707 ± 1 | 
CCCCOc1ccc(CC(=O)NO)cc1 | 0.0165 ± 0.48 | -0.625 ± 0.84
CC(=O)OC(C)C[N+](C)(C)C (stereo unspecified) | 0.171 ± 0.68 | 
Oc1c(Cl)cc(Cl)cc1Sc1cc(Cl)cc(Cl)c1O | 1.13 ± 0.9 | 
C=CCc1ccccc1OCC(O)CNC(C)C (stereo unspecified) | -0.001 ± 0.14 | 
NC[C@H]1CC[C@H](C(=O)O)CC1 | 0.819 ± 0.34 | 
O=C(O)c1cc(=O)c2c(OCC(O)COc3cccc4oc(C(=O)O)cc(=O)c34)cccc2o1 | 0.0141 ± 1.8 | 
CC(=O)c1ccc2c(c1)N(CCCN1CCN(CCO)CC1)c1ccccc1S2 | 0.16 ± 0.51 | 
NC(=O)NO [Hydroxyurea] | 0.602 ± 0.14 | 
NC(=O)NO | -0.116 ± 0.32 | 
Clc1ccccc1C(c1ccccc1)(c1ccccc1)n1ccnc1 | 0.123 ± 0.88 | 
CO/N=C1\CN(c2nc3c(cc2F)c(=O)c(C(=O)O)cn3C2CC2)CC1CN (stereo unspecified) | -1.04 ± 0.39 | 
Clc1ccc(COC(Cn2ccnc2)c2ccc(Cl)cc2Cl)cc1 (stereo unspecified) | -1.26 ± 0.54 | -2.19 ± 0.39
